The target in assay [1] is T1, β-catenin (rat) (UniProt Q9WU82).
T1 sequence (looked up): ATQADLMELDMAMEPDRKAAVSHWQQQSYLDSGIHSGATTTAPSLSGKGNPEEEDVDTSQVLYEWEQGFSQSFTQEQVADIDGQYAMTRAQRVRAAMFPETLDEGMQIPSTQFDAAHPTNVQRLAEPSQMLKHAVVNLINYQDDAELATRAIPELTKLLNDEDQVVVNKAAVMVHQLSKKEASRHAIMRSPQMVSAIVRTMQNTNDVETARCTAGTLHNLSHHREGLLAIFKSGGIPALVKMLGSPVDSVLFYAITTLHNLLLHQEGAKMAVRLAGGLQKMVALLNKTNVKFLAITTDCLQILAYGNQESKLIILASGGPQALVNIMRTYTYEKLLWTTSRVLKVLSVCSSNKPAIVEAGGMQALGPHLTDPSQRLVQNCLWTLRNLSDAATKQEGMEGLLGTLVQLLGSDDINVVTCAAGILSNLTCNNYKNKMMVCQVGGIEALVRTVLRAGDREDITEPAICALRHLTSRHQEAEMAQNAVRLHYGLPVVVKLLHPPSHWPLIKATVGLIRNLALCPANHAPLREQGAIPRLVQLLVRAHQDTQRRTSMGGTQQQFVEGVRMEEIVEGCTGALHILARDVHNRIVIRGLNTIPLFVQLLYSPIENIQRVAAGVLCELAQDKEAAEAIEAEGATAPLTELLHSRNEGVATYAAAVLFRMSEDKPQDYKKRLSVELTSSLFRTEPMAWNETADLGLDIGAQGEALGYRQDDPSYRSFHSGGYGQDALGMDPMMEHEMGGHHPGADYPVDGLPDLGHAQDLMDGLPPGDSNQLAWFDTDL
The assay is described as follows: complex formation in ILK-overexpressing IEC-18 cells (immunoprecipitation and Western blot). For orientation: Immunoblotting shows a protein as a band on a membrane.

Sequences of proteins named here, by UniProt entry; tags and fusion partners are left off.
UniProt Q9QXN1: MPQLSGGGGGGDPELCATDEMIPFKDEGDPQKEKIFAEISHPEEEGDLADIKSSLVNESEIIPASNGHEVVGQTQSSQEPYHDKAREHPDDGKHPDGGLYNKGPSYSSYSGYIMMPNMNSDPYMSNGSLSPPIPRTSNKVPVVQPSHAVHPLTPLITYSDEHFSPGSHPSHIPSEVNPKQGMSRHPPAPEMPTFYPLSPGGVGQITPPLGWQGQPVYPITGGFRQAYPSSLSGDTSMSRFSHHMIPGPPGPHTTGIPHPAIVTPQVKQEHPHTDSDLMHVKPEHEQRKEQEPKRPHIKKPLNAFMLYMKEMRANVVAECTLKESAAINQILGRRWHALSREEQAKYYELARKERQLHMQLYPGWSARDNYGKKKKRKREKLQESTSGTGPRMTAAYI

The target in assay [2] is T1, β-catenin (rat). The assay is described as follows: complex formation in ILK-overexpressing IEC-18 cells.

Results are given in words; binding and its absence hold for the method and conditions named. Some entries that bind do so weakly or less than the wild type.

Consider “LEF-1 (HMG transcription factor) (from UniProt Q9QXN1 1-397)”, for which the binding entry in assay [1] and in assay [2] was “binds” in each case.

(Values after US20080039419A1.)
